This is an account of results in paper PMC3561343.

By UniProt entry, the sequences of proteins in these tests, tags left out.
UniProt P31749: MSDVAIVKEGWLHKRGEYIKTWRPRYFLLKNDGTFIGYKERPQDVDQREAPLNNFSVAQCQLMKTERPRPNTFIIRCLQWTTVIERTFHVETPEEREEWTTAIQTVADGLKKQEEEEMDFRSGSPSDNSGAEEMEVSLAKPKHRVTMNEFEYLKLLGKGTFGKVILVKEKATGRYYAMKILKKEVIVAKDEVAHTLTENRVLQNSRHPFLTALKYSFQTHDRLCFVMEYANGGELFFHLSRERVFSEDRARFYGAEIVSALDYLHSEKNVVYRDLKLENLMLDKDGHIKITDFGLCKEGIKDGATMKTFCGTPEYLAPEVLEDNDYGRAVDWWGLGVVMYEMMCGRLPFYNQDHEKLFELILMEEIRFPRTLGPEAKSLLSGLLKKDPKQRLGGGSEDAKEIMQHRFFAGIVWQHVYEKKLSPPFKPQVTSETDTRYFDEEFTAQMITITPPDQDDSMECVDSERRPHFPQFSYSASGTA
UniProt Q07812: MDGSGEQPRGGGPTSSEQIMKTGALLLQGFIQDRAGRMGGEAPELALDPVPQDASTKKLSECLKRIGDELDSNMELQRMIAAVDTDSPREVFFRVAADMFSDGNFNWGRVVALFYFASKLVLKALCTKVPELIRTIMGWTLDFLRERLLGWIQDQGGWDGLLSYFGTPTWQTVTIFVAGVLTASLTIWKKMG
UniProt P08238: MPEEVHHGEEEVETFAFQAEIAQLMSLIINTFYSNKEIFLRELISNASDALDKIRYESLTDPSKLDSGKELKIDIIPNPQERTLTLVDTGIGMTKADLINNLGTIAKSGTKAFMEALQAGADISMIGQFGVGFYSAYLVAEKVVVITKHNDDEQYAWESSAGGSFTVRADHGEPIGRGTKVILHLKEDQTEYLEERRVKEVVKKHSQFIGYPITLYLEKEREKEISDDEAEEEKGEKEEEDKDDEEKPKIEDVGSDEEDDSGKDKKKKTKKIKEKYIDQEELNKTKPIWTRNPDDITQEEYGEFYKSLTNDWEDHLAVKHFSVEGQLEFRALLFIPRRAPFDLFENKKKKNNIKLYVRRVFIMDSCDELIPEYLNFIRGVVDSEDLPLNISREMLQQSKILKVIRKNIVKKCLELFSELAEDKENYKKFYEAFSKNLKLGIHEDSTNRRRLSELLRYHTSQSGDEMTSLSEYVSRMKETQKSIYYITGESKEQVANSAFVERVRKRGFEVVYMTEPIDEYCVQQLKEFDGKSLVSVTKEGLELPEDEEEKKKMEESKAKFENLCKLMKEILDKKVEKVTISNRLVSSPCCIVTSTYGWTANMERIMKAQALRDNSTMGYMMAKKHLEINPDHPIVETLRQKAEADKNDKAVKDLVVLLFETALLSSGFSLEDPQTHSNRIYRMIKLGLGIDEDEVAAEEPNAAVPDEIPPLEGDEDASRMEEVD
UniProt P0DMV8: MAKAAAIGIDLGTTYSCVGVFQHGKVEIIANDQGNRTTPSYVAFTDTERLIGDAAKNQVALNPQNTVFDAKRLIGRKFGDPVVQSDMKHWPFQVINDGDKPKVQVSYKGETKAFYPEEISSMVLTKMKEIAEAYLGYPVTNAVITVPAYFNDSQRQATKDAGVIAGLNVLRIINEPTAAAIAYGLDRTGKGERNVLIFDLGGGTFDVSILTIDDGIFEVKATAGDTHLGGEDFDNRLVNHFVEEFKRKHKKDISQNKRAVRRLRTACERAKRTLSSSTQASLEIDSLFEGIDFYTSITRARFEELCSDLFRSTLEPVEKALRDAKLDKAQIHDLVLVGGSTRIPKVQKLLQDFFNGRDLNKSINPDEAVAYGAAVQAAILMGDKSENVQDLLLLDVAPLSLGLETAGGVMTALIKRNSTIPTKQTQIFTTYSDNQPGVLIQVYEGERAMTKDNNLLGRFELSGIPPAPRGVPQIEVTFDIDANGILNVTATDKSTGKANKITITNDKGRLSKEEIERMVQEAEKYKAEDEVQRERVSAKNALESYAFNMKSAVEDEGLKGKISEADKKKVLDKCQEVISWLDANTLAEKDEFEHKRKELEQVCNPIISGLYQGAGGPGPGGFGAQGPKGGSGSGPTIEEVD
UniProt P34931: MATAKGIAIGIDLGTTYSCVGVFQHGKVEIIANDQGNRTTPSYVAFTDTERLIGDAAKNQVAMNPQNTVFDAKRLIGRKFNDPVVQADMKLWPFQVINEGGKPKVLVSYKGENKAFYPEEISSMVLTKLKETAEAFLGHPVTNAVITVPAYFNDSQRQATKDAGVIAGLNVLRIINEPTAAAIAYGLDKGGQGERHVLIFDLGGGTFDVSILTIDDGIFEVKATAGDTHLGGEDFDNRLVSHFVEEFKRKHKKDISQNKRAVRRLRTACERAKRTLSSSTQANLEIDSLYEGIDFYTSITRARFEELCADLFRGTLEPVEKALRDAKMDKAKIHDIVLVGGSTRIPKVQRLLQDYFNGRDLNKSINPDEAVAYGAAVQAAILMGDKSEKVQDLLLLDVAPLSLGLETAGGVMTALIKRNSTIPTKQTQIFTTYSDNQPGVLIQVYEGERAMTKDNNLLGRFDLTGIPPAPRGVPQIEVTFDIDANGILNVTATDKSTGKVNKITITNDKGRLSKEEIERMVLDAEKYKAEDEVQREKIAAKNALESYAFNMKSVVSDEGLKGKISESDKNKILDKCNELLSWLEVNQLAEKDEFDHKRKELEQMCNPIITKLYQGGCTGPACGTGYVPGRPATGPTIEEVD
UniProt P11142: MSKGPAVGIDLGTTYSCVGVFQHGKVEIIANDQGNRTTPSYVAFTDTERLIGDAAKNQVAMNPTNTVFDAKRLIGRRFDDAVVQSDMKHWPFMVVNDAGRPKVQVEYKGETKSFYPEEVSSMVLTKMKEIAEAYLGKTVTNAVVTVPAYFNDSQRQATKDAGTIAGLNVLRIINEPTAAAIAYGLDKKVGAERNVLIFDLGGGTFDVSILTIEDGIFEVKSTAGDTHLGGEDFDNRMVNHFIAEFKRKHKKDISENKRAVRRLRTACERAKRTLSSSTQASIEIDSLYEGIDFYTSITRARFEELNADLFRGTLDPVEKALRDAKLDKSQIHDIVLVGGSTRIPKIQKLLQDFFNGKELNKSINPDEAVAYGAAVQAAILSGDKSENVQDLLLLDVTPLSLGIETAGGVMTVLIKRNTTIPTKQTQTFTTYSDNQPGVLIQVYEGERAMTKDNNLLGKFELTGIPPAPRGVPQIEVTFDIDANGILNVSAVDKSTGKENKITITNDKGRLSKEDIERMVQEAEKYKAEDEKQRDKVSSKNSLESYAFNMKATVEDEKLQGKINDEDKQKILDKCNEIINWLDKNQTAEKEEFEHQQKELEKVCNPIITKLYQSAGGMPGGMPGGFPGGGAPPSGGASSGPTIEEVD
UniProt Q00987: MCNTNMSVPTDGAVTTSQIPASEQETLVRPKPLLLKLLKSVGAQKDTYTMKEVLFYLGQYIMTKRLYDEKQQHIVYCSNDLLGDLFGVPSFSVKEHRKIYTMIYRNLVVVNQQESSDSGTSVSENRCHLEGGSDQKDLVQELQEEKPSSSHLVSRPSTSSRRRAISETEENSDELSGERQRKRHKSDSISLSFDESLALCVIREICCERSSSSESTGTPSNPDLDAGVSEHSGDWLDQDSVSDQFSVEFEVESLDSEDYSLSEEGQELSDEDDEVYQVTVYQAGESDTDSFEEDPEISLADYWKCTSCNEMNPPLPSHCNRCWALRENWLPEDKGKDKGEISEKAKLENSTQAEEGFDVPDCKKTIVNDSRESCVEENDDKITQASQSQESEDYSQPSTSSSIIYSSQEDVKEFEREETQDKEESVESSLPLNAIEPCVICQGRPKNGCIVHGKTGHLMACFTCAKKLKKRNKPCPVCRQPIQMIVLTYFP
UniProt P68371: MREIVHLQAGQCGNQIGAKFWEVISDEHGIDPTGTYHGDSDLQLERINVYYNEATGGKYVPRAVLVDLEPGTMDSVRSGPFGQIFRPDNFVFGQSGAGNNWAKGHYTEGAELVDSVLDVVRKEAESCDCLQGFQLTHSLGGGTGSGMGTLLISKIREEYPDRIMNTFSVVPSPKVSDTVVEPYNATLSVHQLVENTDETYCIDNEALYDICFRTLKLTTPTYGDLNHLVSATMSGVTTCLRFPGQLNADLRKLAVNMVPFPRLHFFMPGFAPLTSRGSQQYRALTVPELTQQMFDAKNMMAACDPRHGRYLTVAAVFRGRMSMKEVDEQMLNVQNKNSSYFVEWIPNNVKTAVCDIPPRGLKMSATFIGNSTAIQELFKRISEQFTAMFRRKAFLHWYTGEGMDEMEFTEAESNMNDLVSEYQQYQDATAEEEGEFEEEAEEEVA
UniProt P07437: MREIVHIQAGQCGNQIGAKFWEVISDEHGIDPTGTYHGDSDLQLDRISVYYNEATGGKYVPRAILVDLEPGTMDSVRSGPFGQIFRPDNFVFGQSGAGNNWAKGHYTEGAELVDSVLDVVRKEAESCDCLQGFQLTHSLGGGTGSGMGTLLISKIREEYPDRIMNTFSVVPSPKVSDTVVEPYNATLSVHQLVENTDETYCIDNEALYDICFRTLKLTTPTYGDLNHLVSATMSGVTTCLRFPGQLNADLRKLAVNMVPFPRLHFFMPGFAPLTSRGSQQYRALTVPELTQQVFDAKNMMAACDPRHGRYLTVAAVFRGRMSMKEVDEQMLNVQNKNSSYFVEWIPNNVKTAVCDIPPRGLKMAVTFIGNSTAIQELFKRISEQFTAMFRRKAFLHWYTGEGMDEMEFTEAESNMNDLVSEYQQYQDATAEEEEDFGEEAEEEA
UniProt P08670: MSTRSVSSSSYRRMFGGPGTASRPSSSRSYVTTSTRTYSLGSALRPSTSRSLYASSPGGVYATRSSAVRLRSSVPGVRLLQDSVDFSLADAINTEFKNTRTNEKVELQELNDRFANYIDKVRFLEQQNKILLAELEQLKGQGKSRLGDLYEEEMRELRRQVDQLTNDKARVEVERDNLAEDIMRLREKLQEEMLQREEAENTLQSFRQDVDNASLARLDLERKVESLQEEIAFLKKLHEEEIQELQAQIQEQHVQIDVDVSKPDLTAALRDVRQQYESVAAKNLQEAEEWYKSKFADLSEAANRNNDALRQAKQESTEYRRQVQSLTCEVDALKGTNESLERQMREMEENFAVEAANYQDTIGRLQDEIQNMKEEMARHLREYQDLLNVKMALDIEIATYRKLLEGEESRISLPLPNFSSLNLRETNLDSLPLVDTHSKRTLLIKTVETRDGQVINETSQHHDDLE

In this test the target is VCP-Flag (valosin-containing protein, wild type) (UniProt P55072). The test can be described thus: affinity purification with mass spectrometry; AGS cells with adenoviral VCP-Flag or empty vector, 10 µM MG-132 3 hr, H. pylori 6 hr; lysate (25 mM Tris pH 7.5, 150 mM NaCl, 1% NP-40) on anti-Flag M2 affinity gel overnight at 4°C; eluate on 10% SDS-PAGE, in-gel trypsin digestion, LC-MS/MS (LTQ-Orbitrap); proteins also found with empty vector subtracted.

Results are given in words; binding and its absence hold for the method and conditions named. Binding seen in cells or lysates may run through a third protein. These calls come from enrichment with a bait or labelling near it, and not all partners need be listed.

In the case of Akt (from UniProt P31749 1-480), the binding result is “binds”.

With BAX (from UniProt Q07812 1-192), the binding result was “binds”. Then HSP90AB1 (from UniProt P08238 1-724), with “binds”. As for “HSPA1A/HSPA1B (from UniProt P0DMV8 1-641)”, the binding entry was “binds”.

For HSPA1L (from UniProt P34931 1-641), the binding result is reported as “binds”. As to HSPA8 (from UniProt P11142 1-646), the binding result was “binds”.

On to MDM2 (from UniProt Q00987 1-491), for which the binding result was “binds”. As to TUBB2C (from UniProt P68371 1-445), the binding result is on record as “binds”. For TUBB (from UniProt P07437 1-444), the binding entry was “binds”. Consider VIM (from UniProt P08670 1-466), for which the binding entry is on record as “binds”.

B1: programmed cell death 4 (PDCD4) (protein, UniProt Q53EL6 1-469)
chain: MDVENEQILNVNPADPDNLSDSLFSGDEENAGTEEIKNEINGNWISASSINEARINAKAKRRLRKNSSRDSGRGDSVSDSGSDALRSGLTVPTSPKGRLLDRRSRSGKGRGLPKKGGAGGKGVWGTPGQVYDVEEVDVKDPNYDDDQENCVYETVVLPLDERAFEKTLTPIIQEYFEHGDTNEVAEMLRDLNLGEMKSGVPVLAVSLALEGKASHREMTSKLLSDLCGTVMSTTDVEKSFDKLLKDLPELALDTPRAPQLVGQFIARAVGDGILCNTYIDSYKGTVDCVQARAALDKATVLLSMSKGGKRKDSVWGSGGGQQSVNHLVKEIDMLLKEYLLSGDISEAEHCLKELEVPHFHHELVYEAIIMVLESTGESTFKMILDLLKSLWKSSTITVDQMKRGYERIYNEIPDINLDVPHSYSVLERFVEECFQAGIISKQLRDLCPSRGRKRFVSEGDGGRLKPESY
On to B1, for which the binding entry is on record as “binds”.

B2: NFKB2 (protein, UniProt Q00653 1-900)
chain: MESCYNPGLDGIIEYDDFKLNSSIVEPKEPAPETADGPYLVIVEQPKQRGFRFRYGCEGPSHGGLPGASSEKGRKTYPTVKICNYEGPAKIEVDLVTHSDPPRAHAHSLVGKQCSELGICAVSVGPKDMTAQFNNLGVLHVTKKNMMGTMIQKLQRQRLRSRPQGLTEAEQRELEQEAKELKKVMDLSIVRLRFSAFLRASDGSFSLPLKPVISQPIHDSKSPGASNLKISRMDKTAGSVRGGDEVYLLCDKVQKDDIEVRFYEDDENGWQAFGDFSPTDVHKQYAIVFRTPPYHKMKIERPVTVFLQLKRKRGGDVSDSKQFTYYPLVEDKEEVQRKRRKALPTFSQPFGGGSHMGGGSGGAAGGYGGAGGGGSLGFFPSSLAYSPYQSGAGPMGCYPGGGGGAQMAATVPSRDSGEEAAEPSAPSRTPQCEPQAPEMLQRAREYNARLFGLAQRSARALLDYGVTADARALLAGQRHLLTAQDENGDTPLHLAIIHGQTSVIEQIVYVIHHAQDLGVVNLTNHLHQTPLHLAVITGQTSVVSFLLRVGADPALLDRHGDSAMHLALRAGAGAPELLRALLQSGAPAVPQLLHMPDFEGLYPVHLAVRARSPECLDLLVDSGAEVEATERQGGRTALHLATEMEELGLVTHLVTKLRANVNARTFAGNTPLHLAAGLGYPTLTRLLLKAGADIHAENEEPLCPLPSPPTSDSDSDSEGPEKDTRSSFRGHTPLDLTCSTKVKTLLLNAAQNTMEPPLTPPSPAGPGLSLGDTALQNLEQLLDGPEAQGSWAELAERLGLRSLVDTYRQTTSPSGSLLRSYELAGGDLAGLLEALSDMGLEEGVRLLRGPETRDKLPSTAEVKEDSAYGSQSVEQEAEKLGPPPEPPGGLCHGHPQPQVH
On to B2, for which the binding result is “binds”.
